In article PMC7819943, “Rice protein-binding microarrays: a tool to detect cis-acting elements near promoter regions in rice” one finds binding signal data, which are given here for 54 sequences.

Protein sequences, listed by entry. Tags and fused reporters are not part of them.
UniProt Q0JBA9, entry or part of it: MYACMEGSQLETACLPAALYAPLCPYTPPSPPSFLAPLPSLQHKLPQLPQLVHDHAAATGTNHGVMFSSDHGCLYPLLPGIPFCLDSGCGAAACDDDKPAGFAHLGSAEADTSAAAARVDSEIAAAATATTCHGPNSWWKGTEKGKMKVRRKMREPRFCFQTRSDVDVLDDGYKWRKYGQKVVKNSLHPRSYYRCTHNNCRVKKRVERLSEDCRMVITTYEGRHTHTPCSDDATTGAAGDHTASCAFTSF

Some of the results follow.

For the test, the target named is OsWRKY34 (Oryza sativa, UniProt Q0JBA9 1-250). The test can be described thus: protein-binding microarray (RPBM); PBS, 2% BSA, 51.3 ng/ul salmon testes DNA, 50 uM zinc acetate, 200 nM TF, 25 C, 1 h; high values mean tight binding. The following applies: protein: recombinant; tags: N-terminal polyhistidine and DsRed monomer fusion (pET32a); label: CyDye5-dUTP incorporated in the synthesized complementary strand; 3' TTTTT single-stranded linker to array surface; dsDNA, one strand shown. The method in brief: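 In PBS with 2% BSA, salmon testes DNA and 50 µM zinc acetate, 200 nM protein was incubated on a custom Agilent array at 25 °C for 1 h and then washed off. The array had been made double-stranded by primer extension with Cy5-dUTP and blocked with 2% BSA. The proteins were transcription factors fused N-terminally to polyhistidine and DsRed, expressed in E. coli BL21-CodonPlus and purified on Ni–NTA. The binding signal is per-feature fluorescence intensity (arbitrary units) from an Axon 4000B scanner.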
“AGTAACTGTTCTTGTTTGTGCTCTGTAAAATTTGTATATCCGGAGTCACCTAGTGCAG”: the binding signal was 9860 fluorescence intensity (a.u.).
On to “TCCGTTACCCTTGAAGCCTTATGGAGCTTTGCCTCTTGTTCGGAGTCACCTAGTGCAG”, for which the binding signal was 9310 fluorescence intensity (a.u.).
For the sequence “ATTAGTCCAACTATAAAGGCTGCAATTTTCTCTTCCATTGCGGAGTCACCTAGTGCAG”, the binding signal was 8170 fluorescence intensity (a.u.).
Next, “AGAATTTACTACTTTGTCTTACATTAGCTTACGGCATTTACGGAGTCACCTAGTGCAG”: 9340 fluorescence intensity (a.u.).
For “ACTATCTACGTCATCTCCTATTTCTTCCCTTTTCTTCTCTCGGAGTCACCTAGTGCAG” the value was 11600 fluorescence intensity (a.u.); for “TGACATCGTCTTCTCCAACTTCGGCCGCCGGCGTCAATCTCGGAGTCACCTAGTGCAG”, 8120 fluorescence intensity (a.u.); for “TCCTCGCCTCATCCGCCACCACGGTTTGCTTCGCCACACGCGGAGTCACCTAGTGCAG”, 9120 fluorescence intensity (a.u.).
With “ACTTTTTTGCTTTCCCAACTGCTCCTGTGGATGTAACGCCCGGAGTCACCTAGTGCAG”, the binding signal was 9160 fluorescence intensity (a.u.).
For “GGTCCCTGCCTCGTGAGCAGCCCATCTGCACTGCCTTCTGCGGAGTCACCTAGTGCAG” the value was 8310 fluorescence intensity (a.u.); for “TTTGCGTTGGTTCTGAGGGTGTTCTTTTGGGCAATCTCGTCGGAGTCACCTAGTGCAG”, 10600 fluorescence intensity (a.u.); for “TGAGTGGTGGGAGGAGTTAGCAAGTGGTTTGACCGTGGTTCGGAGTCACCTAGTGCAG”, 11800 fluorescence intensity (a.u.).
For “ATTTGTTTCGACTAGCCTGTGCATCAATGTTTCCCAACTCCGGAGTCACCTAGTGCAG” the value was 15800 fluorescence intensity (a.u.).
For “CGAATTCGTCGTCGGCCATCACCGACCGCGGTGCTCCCTGCGGAGTCACCTAGTGCAG”, the binding signal was 8500 fluorescence intensity (a.u.).
For “TGTTCAGTCTTTTGGTCATAAATATTTGATCATAAAAATTCGGAGTCACCTAGTGCAG” the value was 12300 fluorescence intensity (a.u.).
Turning to “GGGGAGAATAACCTGGAGGAGAGCTGGTGGAGGGGTCTTACGGAGTCACCTAGTGCAG”, the binding signal was 9360 fluorescence intensity (a.u.).
For “GCAGGTCCTCGTCAATCTCCGGCACCACCACTCCATTCGTCGGAGTCACCTAGTGCAG” the value was 9560 fluorescence intensity (a.u.); for “TTCCTTGTACCTATTTGCAATCAATGACAGTGTTCCCCATCGGAGTCACCTAGTGCAG”, 8850 fluorescence intensity (a.u.).
On to “GCCGCCGCCTCTCCGCTTCGCAGCGCCGGCGCCGACTCCACGGAGTCACCTAGTGCAG”, for which the binding signal is 8500 fluorescence intensity (a.u.).
Take “TGCCCTATTCAGACTATTTTTAAATTCTTGATTAAACTCACGGAGTCACCTAGTGCAG”: the binding signal is 8580 fluorescence intensity (a.u.).
As for “GACAAGACTGAGACATTGCTAACGACTACGTAGTCTTTTCCGGAGTCACCTAGTGCAG”, the binding signal is 10200 fluorescence intensity (a.u.).
As to “CCACATCCCACAGGCCGCGCTTTCTTTCTCAAAGCTTTAACGGAGTCACCTAGTGCAG”, the binding signal was 8950 fluorescence intensity (a.u.).
Take “GTTCGAGCTGACTCGTGTGTGTTGTTATGTGTGTGGGTGTCGGAGTCACCTAGTGCAG”: the binding signal was 10600 fluorescence intensity (a.u.).
In the case of “ACATAGCTCGAGCTCGTTTGGTCCTACGCATGGCCACTCTCGGAGTCACCTAGTGCAG”, the binding signal was 8640 fluorescence intensity (a.u.).
For “AGTTGGTATGTGTATGTCAAAAATAGTTTGTTTTCAGCGACGGAGTCACCTAGTGCAG” the value was 9650 fluorescence intensity (a.u.); for “CAAAATAATCGTGTTGTACCTGAACTTACTTTCAACATAACGGAGTCACCTAGTGCAG”, 8330 fluorescence intensity (a.u.); for “TGCTCCGCCTCGTCGACAACACCTGCAGCGACAGCTTCGACGGAGTCACCTAGTGCAG”, 8670 fluorescence intensity (a.u.).
As for “GGAGGAGGAGCTAGGGTTTCGGATGGGAGGAGGAGGAGGGCGGAGTCACCTAGTGCAG”, the binding signal was 8800 fluorescence intensity (a.u.).
For “GCGGCGGGGTTCCTATCCATGGTTTTTTCGGGCTTGTCCACGGAGTCACCTAGTGCAG” the value was 18900 fluorescence intensity (a.u.); for “TACTGCAACACTCATATTAATCATGGTTTAATTATTTCTCCGGAGTCACCTAGTGCAG”, 9070 fluorescence intensity (a.u.); for “AATACTGTAATTCCTGACTTTGCATTTAGCCTATGTAATTCGGAGTCACCTAGTGCAG”, 9340 fluorescence intensity (a.u.).
As for “AATTATTTTTGGTTGCTTCGTTCATTTTTTCACGGCTTATCGGAGTCACCTAGTGCAG”, the binding signal is 14600 fluorescence intensity (a.u.).
Next, “ACCTCTTCCTCGACGCCGCCGCCGACCACCACCCCGCCGGCGGAGTCACCTAGTGCAG”: 8670 fluorescence intensity (a.u.); “CCCCGAATACAATTTACTTGAATCGTTCTTTTACCATGTTCGGAGTCACCTAGTGCAG”: 9020 fluorescence intensity (a.u.); “ATGTTACTGTATGATTAAGGACCACAGATACATGTCTTTTCGGAGTCACCTAGTGCAG”: 8480 fluorescence intensity (a.u.).
Next, “ATCAAACCACTTCCATCTCTCAATTCTCAAGCACACACACCGGAGTCACCTAGTGCAG”: 8310 fluorescence intensity (a.u.); “CTACTTTTCTTTTCTTTTTTGCCTAATACTACTTTGTATACGGAGTCACCTAGTGCAG”: 9720 fluorescence intensity (a.u.); “ATCTACCTTTTCTCACGTCAACCCACACCTCGTCCCCGTCCGGAGTCACCTAGTGCAG”: 14200 fluorescence intensity (a.u.).
For “GGACTTGTACGTTTTGTGAACCTCATTATTTTGTTCCAAGCGGAGTCACCTAGTGCAG” the value was 9440 fluorescence intensity (a.u.); for “GCGAGGTTGGGGACGGTAGGGAGGACGATGGGGAAGGACTCGGAGTCACCTAGTGCAG”, 8340 fluorescence intensity (a.u.); for “GGGTTTTATAGCTTTTTTAACGTACATCTTTTTTTTCAAACGGAGTCACCTAGTGCAG”, 9740 fluorescence intensity (a.u.).
Consider “CCATGTCTCCATGTTCTGTGCCTCTGAGTTCTGAAGCTTGCGGAGTCACCTAGTGCAG”, for which the binding signal is 9340 fluorescence intensity (a.u.).
Next, “CATAATATCTTCTGACTGCCACTCAAATTTTTACAAACAACGGAGTCACCTAGTGCAG”: 9000 fluorescence intensity (a.u.); “ATTAAAGCTACCTCCTGTGCAGCATGTATTCATAGCCGTCCGGAGTCACCTAGTGCAG”: 9440 fluorescence intensity (a.u.).
In the case of “TCAACGTGGCATTCATTTTGTACTGCGCCTCTCCGGTTCGCGGAGTCACCTAGTGCAG”, the binding signal was 9660 fluorescence intensity (a.u.).
Next, “GATTGTCATACTATACTGCTTAAAAAATTGTTCAGCTAAACGGAGTCACCTAGTGCAG”: 8180 fluorescence intensity (a.u.); “CAGCGTCTGATTTTTCTCTACCCCGCCGAGCATTTTCGATCGGAGTCACCTAGTGCAG”: 9260 fluorescence intensity (a.u.); “TTTTATTCTTTTAGGGGTCCCACAGTTATTTTTTTTCTTTCGGAGTCACCTAGTGCAG”: 9750 fluorescence intensity (a.u.).
For “GTTTTGCACCTTATTTGACATGTATGCACTGTTGTATATTCGGAGTCACCTAGTGCAG” the value was 11100 fluorescence intensity (a.u.); for “CAGCAACTCCTATCCACTAGCAGTCCAATTAATTTTCTCTCGGAGTCACCTAGTGCAG”, 8900 fluorescence intensity (a.u.); for “TTTGTATGCCGTAGTTCCAGTGGTTATTATCACTTCCCTGCGGAGTCACCTAGTGCAG”, 8100 fluorescence intensity (a.u.).
For “TGCATCATGGTGGGTTTTTCTTTTTTTGGAGTTGGCAGTACGGAGTCACCTAGTGCAG” the value was 9390 fluorescence intensity (a.u.); for “CTTTCGCAAATAGGGTTTTTAAGAGATAGTTTTCCCGCTACGGAGTCACCTAGTGCAG”, 8670 fluorescence intensity (a.u.).
Turning to “ACTATAGTACATTGCAACGATTATTTTCTTTTATTTTTCGCGGAGTCACCTAGTGCAG”, the binding signal was 8360 fluorescence intensity (a.u.).
Regarding “TCCTGACGCCTTCTTGCCTTGCACTTCCGCTCCGTCCATGCGGAGTCACCTAGTGCAG”, the binding signal is 9410 fluorescence intensity (a.u.).
